PubChem BioAssay AID1224830 – NIAID – 2016

Assay: 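Genes whose knock-down alters the TNF-alpha reporter response to LPS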 (primary screen)
Cells: human THP-1 monocytic leukaemia cells, TNF dual-luciferase reporter clone, PMA-differentiated to macrophage-like cells
Reagents: siRNA pool against human genes, 50 nM
Time to read-out: LPS for 4 h, given about 3 days after siRNA transfection
Challenge: bacterial LPS (TLR4 ligand), 10 ng/ml
Measurement: 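TNF firefly reporter luminescence divided by renilla, normalised to the plate median, then turned into a robust z-score for each replicate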
Reading the numbers: TNF reporter robust z-score: higher = stronger TNF reporter response to LPS
Hit rule: 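a well is active when its z-score exceeds 2.8 or falls below -1.5; control wells carry no call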
Shown is one part, drawn at random, of about 18,000 reagents tested. About 2,900 of all reagents (16%) count as active. 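Calls are made per well; low scores hint the gene aids the LPS response, high scores that it dampens it.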 Unmarked entries are inactive. Repeated entries: four replicate wells of each siRNA pool.

{"Gene": "OR8H1 (olfactory receptor family 8 subfamily H member 1)", "TNF reporter robust z-score": 0.23}
{"Gene": "OR8H1 (olfactory receptor family 8 subfamily H member 1)", "TNF reporter robust z-score": 0.68}
{"Gene": "OR8H1 (olfactory receptor family 8 subfamily H member 1)", "TNF reporter robust z-score": -0.18}
{"Gene": "OR8H1 (olfactory receptor family 8 subfamily H member 1)", "TNF reporter robust z-score": 0.65}
{"Gene": "PNPLA8 (patatin like domain 8, phospholipase A2)", "TNF reporter robust z-score": 0.68}
{"Gene": "PNPLA8 (patatin like domain 8, phospholipase A2)", "TNF reporter robust z-score": 1.72}
{"Gene": "PNPLA8 (patatin like domain 8, phospholipase A2)", "TNF reporter robust z-score": 0.87}
{"Gene": "PNPLA8 (patatin like domain 8, phospholipase A2)", "TNF reporter robust z-score": 0.34}
{"Gene": "GLYR1 (glyoxylate reductase 1 homolog)", "TNF reporter robust z-score": 2.46}
{"Gene": "GLYR1 (glyoxylate reductase 1 homolog)", "TNF reporter robust z-score": -0.82}
{"Gene": "GLYR1 (glyoxylate reductase 1 homolog)", "TNF reporter robust z-score": 0.75}
{"Gene": "GLYR1 (glyoxylate reductase 1 homolog)", "TNF reporter robust z-score": 1.54}
{"Gene": "IDNK (IDNK gluconokinase)", "TNF reporter robust z-score": 1.35}
{"Gene": "IDNK (IDNK gluconokinase)", "TNF reporter robust z-score": -0.08}
{"Gene": "IDNK (IDNK gluconokinase)", "TNF reporter robust z-score": "4.19 (active)"}
{"Gene": "IDNK (IDNK gluconokinase)", "TNF reporter robust z-score": 0.88}
{"Gene": "SAMD5 (sterile alpha motif domain containing 5)", "TNF reporter robust z-score": -0.68}
{"Gene": "SAMD5 (sterile alpha motif domain containing 5)", "TNF reporter robust z-score": 0.49}
{"Gene": "SAMD5 (sterile alpha motif domain containing 5)", "TNF reporter robust z-score": 1.99}
{"Gene": "SAMD5 (sterile alpha motif domain containing 5)", "TNF reporter robust z-score": 0.36}
{"Gene": "ATP12A (ATPase H+/K+ transporting non-gastric alpha2 subunit)", "TNF reporter robust z-score": -0.83}
{"Gene": "ATP12A (ATPase H+/K+ transporting non-gastric alpha2 subunit)", "TNF reporter robust z-score": -1.28}
{"Gene": "ATP12A (ATPase H+/K+ transporting non-gastric alpha2 subunit)", "TNF reporter robust z-score": -0.91}
{"Gene": "ATP12A (ATPase H+/K+ transporting non-gastric alpha2 subunit)", "TNF reporter robust z-score": 0.71}
{"Gene": "TACO1 (translational activator of cytochrome c oxidase I)", "TNF reporter robust z-score": 0.17}
{"Gene": "TACO1 (translational activator of cytochrome c oxidase I)", "TNF reporter robust z-score": 0.46}
{"Gene": "TACO1 (translational activator of cytochrome c oxidase I)", "TNF reporter robust z-score": -0.41}
{"Gene": "TACO1 (translational activator of cytochrome c oxidase I)", "TNF reporter robust z-score": -1.03}
{"Gene": "UNC50 (unc-50 inner nuclear membrane RNA binding protein)", "TNF reporter robust z-score": 1.81}
{"Gene": "UNC50 (unc-50 inner nuclear membrane RNA binding protein)", "TNF reporter robust z-score": 0.53}
{"Gene": "UNC50 (unc-50 inner nuclear membrane RNA binding protein)", "TNF reporter robust z-score": -0.82}
{"Gene": "UNC50 (unc-50 inner nuclear membrane RNA binding protein)", "TNF reporter robust z-score": 0.76}
